Results are given in words; binding and its absence hold for the method and conditions named. Binding seen in cells or lysates may run through a third protein. Some results given as binding are weak or reduced against the parent protein; the word gives no strength.

Amino acid sequences for entries named in this document (tags omitted).
UniProt Q13485: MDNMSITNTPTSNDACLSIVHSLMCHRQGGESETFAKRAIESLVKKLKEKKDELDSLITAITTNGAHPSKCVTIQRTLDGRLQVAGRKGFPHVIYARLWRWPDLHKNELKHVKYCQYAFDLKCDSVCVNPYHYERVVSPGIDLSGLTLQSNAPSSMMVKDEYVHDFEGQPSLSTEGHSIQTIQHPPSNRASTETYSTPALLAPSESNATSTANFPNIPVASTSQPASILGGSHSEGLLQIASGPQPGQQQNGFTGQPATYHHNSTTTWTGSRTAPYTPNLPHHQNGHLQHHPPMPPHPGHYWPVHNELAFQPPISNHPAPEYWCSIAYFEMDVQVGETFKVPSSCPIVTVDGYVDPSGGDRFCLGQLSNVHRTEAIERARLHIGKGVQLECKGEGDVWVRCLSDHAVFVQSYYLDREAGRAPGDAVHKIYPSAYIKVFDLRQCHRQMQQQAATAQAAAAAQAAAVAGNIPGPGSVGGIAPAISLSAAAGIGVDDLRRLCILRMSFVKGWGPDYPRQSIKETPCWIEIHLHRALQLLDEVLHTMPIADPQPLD
UniProt P84022: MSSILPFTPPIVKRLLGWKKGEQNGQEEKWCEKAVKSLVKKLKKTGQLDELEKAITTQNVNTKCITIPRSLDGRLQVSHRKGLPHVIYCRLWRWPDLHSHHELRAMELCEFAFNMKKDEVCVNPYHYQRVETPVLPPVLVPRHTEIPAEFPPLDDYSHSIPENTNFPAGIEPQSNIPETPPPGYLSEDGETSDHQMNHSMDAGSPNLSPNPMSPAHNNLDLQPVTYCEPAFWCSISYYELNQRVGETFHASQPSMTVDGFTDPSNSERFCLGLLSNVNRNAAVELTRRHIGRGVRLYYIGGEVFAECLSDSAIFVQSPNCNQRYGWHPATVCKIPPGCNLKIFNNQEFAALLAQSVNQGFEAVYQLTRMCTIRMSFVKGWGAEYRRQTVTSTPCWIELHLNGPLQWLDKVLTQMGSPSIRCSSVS
UniProt Q15796: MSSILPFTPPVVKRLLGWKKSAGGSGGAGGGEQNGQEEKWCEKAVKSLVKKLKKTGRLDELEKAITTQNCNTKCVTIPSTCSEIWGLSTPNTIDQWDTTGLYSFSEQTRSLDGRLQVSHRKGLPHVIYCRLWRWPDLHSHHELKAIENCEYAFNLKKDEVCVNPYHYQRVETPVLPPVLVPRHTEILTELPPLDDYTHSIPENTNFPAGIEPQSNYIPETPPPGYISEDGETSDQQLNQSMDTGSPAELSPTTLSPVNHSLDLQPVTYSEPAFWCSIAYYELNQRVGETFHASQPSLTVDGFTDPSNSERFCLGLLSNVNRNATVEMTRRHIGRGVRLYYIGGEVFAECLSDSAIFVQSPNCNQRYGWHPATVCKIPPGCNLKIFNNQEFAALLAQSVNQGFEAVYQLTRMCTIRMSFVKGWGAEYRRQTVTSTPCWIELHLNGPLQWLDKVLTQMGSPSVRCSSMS
UniProt P97471: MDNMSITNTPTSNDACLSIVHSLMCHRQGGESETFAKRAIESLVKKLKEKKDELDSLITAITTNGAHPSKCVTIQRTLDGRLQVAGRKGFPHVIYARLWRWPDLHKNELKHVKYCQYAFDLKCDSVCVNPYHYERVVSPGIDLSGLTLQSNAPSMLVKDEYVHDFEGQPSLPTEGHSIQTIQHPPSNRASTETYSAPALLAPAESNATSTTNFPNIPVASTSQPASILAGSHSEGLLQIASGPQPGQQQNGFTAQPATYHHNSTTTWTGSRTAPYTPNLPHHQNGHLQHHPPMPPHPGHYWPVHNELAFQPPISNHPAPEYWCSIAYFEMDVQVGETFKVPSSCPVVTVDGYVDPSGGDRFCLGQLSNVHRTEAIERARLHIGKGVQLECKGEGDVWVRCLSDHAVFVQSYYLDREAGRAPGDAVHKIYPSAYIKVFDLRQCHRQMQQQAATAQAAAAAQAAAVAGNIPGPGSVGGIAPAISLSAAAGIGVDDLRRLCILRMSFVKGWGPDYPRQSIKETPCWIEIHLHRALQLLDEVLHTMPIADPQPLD
UniProt Q12778: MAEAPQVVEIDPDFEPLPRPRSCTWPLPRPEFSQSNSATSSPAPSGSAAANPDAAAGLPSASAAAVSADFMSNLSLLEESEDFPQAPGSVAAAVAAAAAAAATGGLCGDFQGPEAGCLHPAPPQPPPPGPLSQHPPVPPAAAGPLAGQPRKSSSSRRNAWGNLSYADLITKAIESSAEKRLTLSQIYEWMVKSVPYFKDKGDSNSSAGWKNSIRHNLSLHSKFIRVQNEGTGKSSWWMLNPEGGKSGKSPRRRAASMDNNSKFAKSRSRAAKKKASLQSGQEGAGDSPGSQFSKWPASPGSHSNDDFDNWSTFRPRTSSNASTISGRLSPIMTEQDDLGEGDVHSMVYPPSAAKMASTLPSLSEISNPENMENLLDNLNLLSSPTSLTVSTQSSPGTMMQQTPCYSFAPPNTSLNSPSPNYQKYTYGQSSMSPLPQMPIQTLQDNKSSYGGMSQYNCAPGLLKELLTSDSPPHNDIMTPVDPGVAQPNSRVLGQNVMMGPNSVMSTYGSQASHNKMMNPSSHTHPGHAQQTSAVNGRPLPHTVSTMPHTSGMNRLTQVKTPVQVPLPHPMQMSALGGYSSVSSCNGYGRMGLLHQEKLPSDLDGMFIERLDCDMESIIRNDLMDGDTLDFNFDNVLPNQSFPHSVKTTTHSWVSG
UniProt Q9R1E0: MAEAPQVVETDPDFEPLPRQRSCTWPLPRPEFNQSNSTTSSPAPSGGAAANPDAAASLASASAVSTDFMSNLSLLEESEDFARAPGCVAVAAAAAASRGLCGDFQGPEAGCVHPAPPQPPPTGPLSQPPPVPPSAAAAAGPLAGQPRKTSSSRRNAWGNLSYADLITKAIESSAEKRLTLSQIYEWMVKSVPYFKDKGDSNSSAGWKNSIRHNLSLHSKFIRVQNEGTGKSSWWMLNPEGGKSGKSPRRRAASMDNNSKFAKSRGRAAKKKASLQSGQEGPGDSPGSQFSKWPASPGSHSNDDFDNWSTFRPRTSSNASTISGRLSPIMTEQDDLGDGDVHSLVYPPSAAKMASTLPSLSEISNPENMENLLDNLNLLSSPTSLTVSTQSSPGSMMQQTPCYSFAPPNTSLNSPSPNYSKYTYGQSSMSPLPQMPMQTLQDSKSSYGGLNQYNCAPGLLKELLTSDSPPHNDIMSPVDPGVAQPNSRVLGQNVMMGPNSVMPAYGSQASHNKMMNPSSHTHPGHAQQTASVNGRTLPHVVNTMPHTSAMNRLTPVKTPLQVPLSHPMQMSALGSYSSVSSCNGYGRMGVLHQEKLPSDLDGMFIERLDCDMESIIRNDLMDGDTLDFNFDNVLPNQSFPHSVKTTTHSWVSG

For one assay, the target named is GST-SMAD4 (UniProt Q13485). The experiment in a line: pull-down; GST or GST-SMAD2/3/4 on glutathione sepharose 4B beads; 20 µl 35S-labeled in vitro transcribed and translated protein in 400 µl HND buffer (10 mg/ml BSA, 20 mM Hepes pH 7.8, 50 mM NaCl, 5 mM DTT, 0.1% NP-40), overnight at 4°C; washed with HND buffer and 0.1% NP-40 in PBS; 10% SDS-PAGE; only the target purified.

In the next assay the target is GST-SMAD3 (UniProt P84022). Described as above.
Another assay deals with GST-SMAD2 (UniProt Q15796). Described as above.
Assay [1] addresses endogenous SMAD4 in LβT2 gonadotrope cells (mouse (endogenous in LβT2)) (UniProt P97471). The experiment in a line: co-IP; endogenous proteins; 400 µg pre-cleared nuclear extract of LβT2 cells treated with or without 10 ng/mL activin for 2 h; SMAD4 or SMAD2/3 antibody or mouse IgG, Protein A magnetic beads, overnight at 4°C; Western blot for SMAD4, SMAD2/3 and FOXO1. In general terms: Immunoblotting shows a protein as a band on a membrane.

As to “FOXO1 (human, wild type), ^35S-labeled, in vitro transcribed and translated (from UniProt Q12778 1-655)”, the binding entry is reported as “binds” with GST-SMAD4, “binds” in the assay with GST-SMAD3 and “no binding” with GST-SMAD2.

For the substance “endogenous FOXO1 in LβT2 gonadotrope cells (from UniProt Q9R1E0 1-652)”, in assay [1], the binding entry is listed as “binds”.

The values above are taken from paper PMC4244159.
